## Percent effect of library compounds

Source: ChEMBL document CHEMBL3988442, “University of Dundee, Small-Polar-MMV Screening Library” (2021).

Values are the deposited “Percent Effect”, in %. The controls that fix the scale are not given in the record; negative values are as filed. Compounds were drawn at random from those tested, without regard to their results. A dash means the value is not listed here; it may have been measured.

T. brucei: 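Whole-parasite assay of Trypanosoma brucei over 72 hours; the read-out is not stated. Tested at 30 µM. Direction is inferred from retests: higher values go with stronger inhibition. Values scatter widely below zero; nearly all retest evidence comes from the higher of the two concentrations used. Size under these conditions: about 64,000 compounds, about 940 of them at 50% or above in at least one test.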
Leishmania in macrophages: 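Cell assay of Leishmania donovani living inside macrophages; the read-out is not stated. Tested at 30 µM. The record gives no direction; compounds that gave an IC50 in retests scored well above the rest, so higher reads as stronger inhibition. About 69,000 compounds were tested under these conditions; 1.5% (about 1,000) showed 50% or more at least once.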
Toxoplasma: 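Assay of Toxoplasma gondii numbers, read through their beta-galactosidase reporter with a colour substrate. Compounds at 10 µM. The record gives no direction; the compounds picked for IC50 retests had high values, so higher reads as fewer parasites. About 67,000 compounds were tested under these conditions; 0.38% (about 260) showed 50% or more at least once.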

- CCn1cncc1C1CC(=O)Nc2c1c(C)nn2-c1ccc(C)cc1 (stereo unspecified) | T. brucei: 5.048%; Leishmania in macrophages: 34.51%; Toxoplasma: -0.1355%
- CN1CCN(c2cc(CCNC(=O)C3CCC3)nc(C3CC3)n2)CC1 | T. brucei: -2.167%; Leishmania in macrophages: 21.46%; Toxoplasma: 13.39%
- Cn1cc(CN2CCCC(c3nc(O)cc(-c4cccs4)n3)C2)cn1 (stereo unspecified) | Leishmania in macrophages: 2.927%; Toxoplasma: 3.876%
- CC(NC(=O)Cc1ccon1)c1ccc(OCC2CC2)c(F)c1 (stereo unspecified) | T. brucei: -20.8%; Leishmania in macrophages: -3.587%; Toxoplasma: 2.918%
- N#Cc1ccccc1C(=O)N1CCC2(CC(=O)NC2=O)C1 (stereo unspecified) | T. brucei: -20.82%; Leishmania in macrophages: 43.83%; Toxoplasma: -3.231%
- CCCN1CCC(N(C)CCC(=O)Nc2ccccc2SC)CC1 | T. brucei: -20.31%; Leishmania in macrophages: -0.3468%; Toxoplasma: 3.637%
- Cc1ccccc1C(=O)NC1CCN(c2cnn(C)c2)C1=O (stereo unspecified) | T. brucei: -37.41%; Leishmania in macrophages: -1.697%; Toxoplasma: -5.159%
- COc1ccccc1C(=O)Nc1c(C)cnn1CC1CC1 | T. brucei: -56.46%; Leishmania in macrophages: -29.34%; Toxoplasma: 1.973%
- Cc1ccc(-c2nc(CN3CCOC(Cn4cncn4)C3)cs2)o1 (stereo unspecified) | T. brucei: -34.79%; Leishmania in macrophages: 19.21%; Toxoplasma: -13.41%
- CN1CCN(C(=O)Cc2ccccn2)Cc2cccnc21 | T. brucei: -32.87%; Leishmania in macrophages: -0.2985%; Toxoplasma: 6.209%
- COCC(=O)N1CCCC2(COCCN(CCN(C)C)C2)C1.O=C(O)C(F)(F)F.O=C(O)C(F)(F)F (stereo unspecified) | T. brucei: -39.86%; Leishmania in macrophages: 21.17%; Toxoplasma: 5.38%
- CN(C)[C@H]1CCCCN(C(=O)c2cccc(-c3cccc(F)c3)c2)C1 | T. brucei: 59.87%; Leishmania in macrophages: 60.02%; Toxoplasma: -46.08%
- Cn1nnnc1SC1CCCN(c2ccccc2Cl)C1=O (stereo unspecified) | T. brucei: -4.054%; Leishmania in macrophages: 10.35%; Toxoplasma: 4.345%
- COCCN1CCCC12CCN(Cc1cncn1C)CC2.O=C(O)C(F)(F)F.O=C(O)C(F)(F)F | Leishmania in macrophages: 15.84%; Toxoplasma: -16.57%
- CCN1CCN(c2ccc(C(=O)NC(C)C(=O)N(C)C)cc2)CC1 (stereo unspecified) | T. brucei: -12.91%; Leishmania in macrophages: 9.443%; Toxoplasma: -4.076%
- Cc1[nH]c(-c2ccccc2)nc1C(=O)N1CCC2(CCCO2)CC1 | T. brucei: 5.599%; Leishmania in macrophages: 62.09%; Toxoplasma: 0.9135%
- CC(OCC(F)(F)F)C(=O)Nc1ccc(-n2cncn2)nc1 (stereo unspecified) | T. brucei: -3.955%; Leishmania in macrophages: -23.72%; Toxoplasma: 8.683%
- CN(Cc1nnc(-c2ccco2)o1)CC1CCCN1c1cccnn1 (stereo unspecified) | T. brucei: -21.92%; Leishmania in macrophages: 20.04%; Toxoplasma: 0.2953%
- COc1ccccc1CCNC(=O)NCC(=O)Nc1cccnc1 | T. brucei: 4.27%; Leishmania in macrophages: 33.15%; Toxoplasma: 13.39%
- Cc1ccc(C)c(CC(=O)NC2CCCS(=O)(=O)C2)c1 (stereo unspecified) | T. brucei: -8.358%; Leishmania in macrophages: -4.783%; Toxoplasma: 1.391%
- c1ccc2nc(N3CCOC(Cn4cncn4)C3)cnc2c1 (stereo unspecified) | Leishmania in macrophages: 5.104%; Toxoplasma: -14.12%

Once more, the final 2:

| structure | T. brucei | Leishmania in macrophages | Toxoplasma |
|---|---|---|---|
| `Cc1ccc(C)c(CC(=O)NC2CCCS(=O)(=O)C2)c1` (stereo unspecified) | -8.358 | -4.783 | 1.391 |
| `c1ccc2nc(N3CCOC(Cn4cncn4)C3)cnc2c1` (stereo unspecified) | - | 5.104 | -14.12 |